The series in a line: z-scores of the six VOCs most correlated with malaria status in breath (Cohort 1). Also on record: species or system human.

Here are results for 1 substance from patent US11925455B2, “Methods for diagnosing malaria” (Washington University, priority 2017, dated 2024).

Turning to Isoprene, the “concentration in breath of malaria positive individuals compared to controls” value was “lowered abundance”.
